In PubChem BioAssay AID504444 (National Center for Advancing Translational Sciences (NCATS), 2011):
“And” between values parts separate entries of the source, which are not always exact repeats. Identical values can stand only once. About 7,500 (2.1%) of roughly 360,000 compounds were called active. Inconclusive means that the source gave no clear call. Such entries were picked first, then a sample of the others. Calls come from the whole dose curve; as a rule, active = well fitted inhibition curve with a large enough effect; inconclusive = small, poorly fitted or top-dose-only effect, or effect the other way; inactive = flat fitted curve, though single readings scatter. Potencies of inconclusive entries are doubtful fits and often do not repeat.

Test: Nrf2 qHTS screen for inhibitors; note: nearly all actives have a fitted effect of over 60% in size
Conditions: A549 ARE-Fluc reporter, luciferase luminescence, 18-24 h; series mostly up to 46 µM
Method in brief: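 Nrf2 activity is the BugLite luminescence, read 15 min after reagent at room temperature, following CellTiter-Fluor cytotoxicity readout (30 min, 37C). Compound titrations were applied for 18-24 h to 5000 A549 ARE_Fluc cells/well in 5% FBS OPTI-MEM.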
Potency is the fitted concentration of half-maximal effect.

SMILES	Potency
Cc1c(N/C=C/C(=O)c2cccs2)c(=O)n(-c2ccccc2)n1C	inconclusive: 23.1 µM [activator, single point]
Cc1ccc(C(=O)NNC(=S)NC(=O)c2ccco2)cc1	inconclusive: 18.4 µM [falling, single point]
CCOc1ccc(N2C(=O)CC(N(CCc3ccc(OC)c(OC)c3)C(=S)Nc3ccccc3)C2=O)cc1 (stereo not given)	active: 23.1 µM
CC(=O)Nc1ccc(NC(=O)Cn2cc3c(n2)CCCCC3)cc1	inactive
O=c1[nH]nc(SCc2nnc(-c3cccc(Cl)c3)o2)n1C1CCCCC1	inconclusive: 29.1 µM [falling, single point]
Cc1cc(N2CCN(S(=O)(=O)c3ccccc3)CC2)c2ccccc2n1	active: 20.6 µM
COc1ccc(Cn2c(-c3ccc(C)cc3)c[n+]3ccccc23)cc1	active: 0.731 µM
Cc1ccc(O)c(NC(=O)COc2cc(C)ccc2C)c1	inconclusive: 8.2 µM [falling, partial curve, poor fit]
CCn1cc(C(=O)NCc2ccc3c(c2)OCO3)c(=O)c2cc(S(=O)(=O)N3CCOCC3)ccc21	inconclusive: 5.17 µM [falling, partial curve, poor fit]
Cc1ccc(-c2nc3ccccc3n3nnnc23)cc1	inconclusive: 8.2 µM [activator, partial curve, poor fit]
CCC(=O)Nc1c(C#N)c2nc3ccccc3nc2n1-c1ccc(C)cc1	inconclusive: 16.4 µM [falling, single point]
CC(CCc1ccccc1)NC(=O)C1CCN(S(=O)(=O)c2ccc(F)cc2)CC1 (stereo not given)	inconclusive: 18.4 µM [falling, partial curve, poor fit]
CCOC(=O)c1c(NC(=O)CSc2cn(CCNC(=O)c3ccc(OC)c(OC)c3)c3ccccc23)sc2c1CCC2	inconclusive: 4.11 µM [falling, full curve]
CCOc1ccc(NC(=O)CN(C)C(=O)c2ccc(COc3ccccc3)cc2)cc1OCC	inconclusive: 29.1 µM [falling, single point]
Cc1cc(C)n2nc(-c3ccc(Cl)cc3)nc2n1	inconclusive: 3.26 µM [activator, full curve]
CSc1cccc(Nc2ccc(S(=O)(=O)N3CCOCC3)cc2[N+](=O)[O-])c1	active: 18.4 µM
Cc1cccc(N2CCN(c3nc4ccc(C(=O)c5ccccc5)cc4n4cnnc34)CC2C)c1 (stereo not given)	inactive
CCOC(=O)Nc1ccc2c(c1)C(=NNC(N)=S)c1ccccc1-2	inconclusive: 6.51 µM [activator, single point]
c1ccc2nc3c(nc2c1)OCC1CCCCN31 (stereo not given)	inconclusive: 6.51 µM [activator, partial curve]
CC(C)Oc1ccc(CNC(=O)c2ccc(CS(=O)Cc3ccccc3Cl)o2)cc1 (stereo not given)	inconclusive: 20.6 µM [falling, partial curve, poor fit]
Cn1nc(-c2ccc(C(=O)Nc3cccnc3)cc2)c2ccccc2c1=O	inconclusive: 29.1 µM [falling, single point]
Fc1cccc(CNc2ncnc3ccc(-c4ccc5c(c4)OCO5)cc23)c1	inconclusive: 16.4 µM [falling, single point]

SMILES	Potency
COc1ccc(C(=O)C2CCCN(C(=O)c3ccccc3C(C)=O)C2)cc1F (stereo not given)	inconclusive: 18.4 µM [activator, partial curve]
COc1ccc(OC)c(NC(=O)c2oc3c(c2C)-c2nn(Cc4ccc(Cl)cc4)cc2CC3)c1	inconclusive: 16.4 µM [activator, partial curve, poor fit]
O=C1c2c(O)ccc(O)c2C(=O)c2c(NCCNCCO)ccc(NCCNCCO)c21	inconclusive: 18.4 µM [falling, partial curve, poor fit] and inconclusive: 8.2 µM [falling, partial curve, poor fit]
COc1ccc(-c2nnc(SC(=O)N3c4ccccc4Sc4ccccc43)o2)cc1	inconclusive: 20.6 µM [falling, single point]
Cc1cc(Cn2nc(-c3ccccc3)cc2C(=O)NCc2cccc(Br)c2)on1	inconclusive: 11.6 µM [falling, partial curve, poor fit]
CCN(C(=O)NCc1noc2ccccc12)c1cc(C)ccc1C	inactive
CCOC(=O)c1cn[nH]c1NC(=S)Nc1ccc(Cl)cc1	inconclusive: 5.17 µM [activator, full curve]
COc1cc(OC)nc(Oc2ccccc2C(=O)Oc2cccc(C)c2)n1	inconclusive: 11.6 µM [falling, partial curve, poor fit]
CCCn1nc(C(=O)Nc2nc(-c3ccccn3)cs2)c2ccccc2c1=O	active: 8.2 µM
CCOC(=O)c1nc(Nc2cccc(C)c2)c2ccccc2n1	inconclusive: 1.84 µM [falling, full curve]
Cc1cc(NC2CCCCC2)nc(NCc2ccccc2)n1	inconclusive: 29.1 µM [falling, single point]
Cc1cccc(-c2ccc3ncnc(NCc4cccs4)c3c2)c1	active: 20.6 µM
COc1cc(/C=N/NC(=O)Nc2cccc3nsnc23)cc(OC)c1OC	inconclusive: 16.4 µM [falling, partial curve]
CCOc1ccc(NS(=O)(=O)c2ccc(C(=O)N(C)Cc3cccc(OC)c3OC)cc2)cc1	active: 14.6 µM
CCOc1ccc(S(=O)(=O)NCCC(=O)N2CCN(c3ccc(OC)cc3)CC2)cc1	inconclusive: 18.4 µM [falling, single point]
O=C(CCN1C(=O)c2ccccc2S1(=O)=O)N1CCN(c2ccccc2F)CC1	inconclusive: 0.0052 µM [falling, full curve, poor fit]
Cc1ccc2nc(/C(C#N)=C/c3ccc(-c4cccc(Cl)c4)o3)[nH]c2c1	inconclusive: 16.4 µM [falling, partial curve, poor fit]
CCC(C)c1ccc(NC(=O)c2[nH]c(C)c(C(C)=O)c2C)cc1 (stereo not given)	inconclusive: 5.17 µM [activator, partial curve]
Cc1ccc(C(=O)/C=C/Nc2ccccn2)cc1	inconclusive: 0.411 µM [activator, full curve]
CC(C)CN(CC(C)C)C(=O)Cc1coc2ccc3ccccc3c12	inactive
Cc1cccc(C(=O)NCC(=O)Nc2ccncc2)c1	inconclusive: 16.4 µM [falling, single point]
COCCCNC(=O)c1c(N)n(/N=C/c2cccnc2)c2nc3ccccc3nc12	inconclusive: 18.4 µM [falling, single point]

SMILES	Potency
COc1ccc(-c2nnc(SCC(=O)NC(C)c3ccccc3)o2)cc1 (stereo not given)	inactive
NC(=O)c1ccc(NC(=O)CNC(=O)c2sc3ccccc3c2Cl)cc1	inconclusive: 1.84 µM [falling, partial curve, poor fit]
Cn1cc(CN2CCN(Cc3cccnc3)CC2)c(-c2ccc3c(c2)OCCO3)n1	inconclusive: 29.1 µM [falling, single point]
CN1CCN(NC(=O)CSc2ccc(Cl)cc2Cl)CC1	inactive
c1ccc(NC2=Nc3ccccc3CS2)cc1	inconclusive: 11.6 µM [activator, partial curve]
CCC(C)NC(=O)CC(c1ccccc1)c1cc(C)ccc1O (stereo not given)	inconclusive: 2.06 µM [falling, partial curve]
COc1cccc(NC(=O)COc2ccccc2C(N)=O)c1	inconclusive: 2.91 µM [activator, partial curve]
CN1CCc2c(sc3c2C(=O)NC(c2cccc(OC(=O)c4cccs4)c2)N3)C1 (stereo not given)	inconclusive: 25.9 µM [activator, partial curve]
Fc1ccc(NC(=S)Nc2ccc(Cl)cc2Cl)cc1	inconclusive: 18.4 µM [falling, partial curve, poor fit]
CN(C)c1ccc(/C=N/NC(=O)c2ccnn2C)cc1	inconclusive: 4.61 µM [activator, partial curve]
O=C1CCN(CCc2ccccc2)CCN1[C@H](CSc1ccccc1)c1ccccc1	inactive
Cc1ccc2nsnc2c1S(=O)(=O)NC1CC1	inconclusive: 2.59 µM [falling, partial curve]
O=C(CSc1nnnn1C1CCCCC1)NCCc1ccccc1	inconclusive: 32.6 µM [activator, single point]
CC1CCN(S(=O)(=O)c2ccc3nc(-c4ccccn4)cc(C(=O)NCCN(C)Cc4ccccc4)c3c2)CC1	inactive
CC(=O)N1CCN(c2ccc(NC(=O)c3ccc(C)cc3)cc2)CC1	inactive
Cc1ccc(C(=O)N/C(=C/c2ccc(N(C)C)cc2)C(=O)NCC2CCCO2)cc1 (stereo not given)	inconclusive: 14.6 µM [falling, partial curve, poor fit]
CCN(C[C@H]1N[C@@](Cc2ccccc2)(C(=O)OC)[C@H]2C(=O)N(C)C(=O)[C@@H]12)S(=O)(=O)c1ccc(C(F)(F)F)cc1	inactive
Cc1cc(NC(c2cccnc2)c2ccc3cccnc3c2O)no1 (stereo not given)	inconclusive: 18.4 µM [falling, partial curve, poor fit]
N/C(=N\OC(=O)c1ccc(Cl)cc1Cl)c1ccccn1	inconclusive: 0.651 µM [activator, partial curve]
CC(=O)Nc1ccc(OCc2nnc(-c3ccc(Cl)cc3)o2)cc1	inconclusive: 23.1 µM [activator, single point]
COc1cccc(-c2cc(C(F)(F)F)nc(-n3cc(C)cn3)n2)c1	inconclusive: 2.31 µM [falling, partial curve]
